The supplement of paper PMC6411743
± gives the standard deviation of the averaged measurements. Only a part is listed here, and it is no random draw.

Chains of the proteins cited; added tags and fusions are not shown. Lines headed by an entry give the natural chain unless they say otherwise; changes in a name come on top.
UniProt Q969F1: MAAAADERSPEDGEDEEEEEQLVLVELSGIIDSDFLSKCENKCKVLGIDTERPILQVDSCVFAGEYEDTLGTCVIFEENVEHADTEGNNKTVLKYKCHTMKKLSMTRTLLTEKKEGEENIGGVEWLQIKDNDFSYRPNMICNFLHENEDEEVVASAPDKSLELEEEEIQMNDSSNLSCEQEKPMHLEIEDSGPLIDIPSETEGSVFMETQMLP
UniProt Q96GW9: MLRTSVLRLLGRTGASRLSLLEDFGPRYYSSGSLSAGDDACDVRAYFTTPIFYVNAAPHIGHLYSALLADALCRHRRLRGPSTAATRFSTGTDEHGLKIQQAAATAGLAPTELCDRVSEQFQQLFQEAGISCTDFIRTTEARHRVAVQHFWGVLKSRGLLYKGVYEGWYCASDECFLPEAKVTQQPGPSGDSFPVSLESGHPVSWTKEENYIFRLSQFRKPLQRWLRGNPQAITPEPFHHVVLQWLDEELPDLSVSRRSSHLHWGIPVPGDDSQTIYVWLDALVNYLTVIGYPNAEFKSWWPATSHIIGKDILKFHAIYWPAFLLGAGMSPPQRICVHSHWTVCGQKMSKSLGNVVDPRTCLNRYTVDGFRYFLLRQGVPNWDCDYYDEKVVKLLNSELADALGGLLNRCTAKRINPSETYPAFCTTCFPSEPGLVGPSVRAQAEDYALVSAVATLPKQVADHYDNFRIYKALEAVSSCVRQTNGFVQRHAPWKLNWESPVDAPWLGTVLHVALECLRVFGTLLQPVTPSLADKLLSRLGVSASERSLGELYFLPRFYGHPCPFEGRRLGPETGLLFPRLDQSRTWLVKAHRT
UniProt Q96PV6, whole entry: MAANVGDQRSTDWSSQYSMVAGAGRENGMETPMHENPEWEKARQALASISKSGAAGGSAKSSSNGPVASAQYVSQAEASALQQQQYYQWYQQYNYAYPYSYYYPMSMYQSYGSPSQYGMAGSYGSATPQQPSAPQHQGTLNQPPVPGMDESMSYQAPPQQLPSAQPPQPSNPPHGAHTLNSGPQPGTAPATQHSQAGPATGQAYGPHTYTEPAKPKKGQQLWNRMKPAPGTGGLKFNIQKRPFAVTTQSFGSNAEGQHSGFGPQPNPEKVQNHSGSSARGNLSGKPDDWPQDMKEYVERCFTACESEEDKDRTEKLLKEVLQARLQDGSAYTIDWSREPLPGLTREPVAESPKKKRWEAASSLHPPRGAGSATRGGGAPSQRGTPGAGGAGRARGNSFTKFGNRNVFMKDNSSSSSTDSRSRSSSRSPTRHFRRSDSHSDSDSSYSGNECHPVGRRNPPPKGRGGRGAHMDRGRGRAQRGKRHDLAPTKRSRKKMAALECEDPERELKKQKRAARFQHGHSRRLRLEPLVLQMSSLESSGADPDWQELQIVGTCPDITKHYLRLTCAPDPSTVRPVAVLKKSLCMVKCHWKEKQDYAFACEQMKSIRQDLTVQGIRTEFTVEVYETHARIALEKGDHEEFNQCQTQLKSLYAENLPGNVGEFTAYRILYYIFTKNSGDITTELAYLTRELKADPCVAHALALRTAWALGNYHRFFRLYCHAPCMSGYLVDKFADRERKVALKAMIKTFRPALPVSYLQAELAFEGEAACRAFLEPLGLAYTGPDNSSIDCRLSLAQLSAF
UniProt Q96GJ1: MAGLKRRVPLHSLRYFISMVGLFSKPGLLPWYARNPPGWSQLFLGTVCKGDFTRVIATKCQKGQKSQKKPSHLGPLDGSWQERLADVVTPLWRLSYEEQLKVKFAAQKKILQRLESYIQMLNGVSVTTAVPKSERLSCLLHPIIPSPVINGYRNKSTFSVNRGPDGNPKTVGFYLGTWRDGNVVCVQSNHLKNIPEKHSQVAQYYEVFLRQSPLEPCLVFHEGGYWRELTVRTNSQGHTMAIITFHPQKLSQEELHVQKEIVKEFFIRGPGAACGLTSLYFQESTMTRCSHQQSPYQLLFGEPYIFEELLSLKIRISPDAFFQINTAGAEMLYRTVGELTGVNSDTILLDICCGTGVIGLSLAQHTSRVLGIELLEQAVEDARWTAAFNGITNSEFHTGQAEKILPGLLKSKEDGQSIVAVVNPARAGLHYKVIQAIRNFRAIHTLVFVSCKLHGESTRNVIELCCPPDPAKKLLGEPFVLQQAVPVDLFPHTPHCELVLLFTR
UniProt Q96CN4: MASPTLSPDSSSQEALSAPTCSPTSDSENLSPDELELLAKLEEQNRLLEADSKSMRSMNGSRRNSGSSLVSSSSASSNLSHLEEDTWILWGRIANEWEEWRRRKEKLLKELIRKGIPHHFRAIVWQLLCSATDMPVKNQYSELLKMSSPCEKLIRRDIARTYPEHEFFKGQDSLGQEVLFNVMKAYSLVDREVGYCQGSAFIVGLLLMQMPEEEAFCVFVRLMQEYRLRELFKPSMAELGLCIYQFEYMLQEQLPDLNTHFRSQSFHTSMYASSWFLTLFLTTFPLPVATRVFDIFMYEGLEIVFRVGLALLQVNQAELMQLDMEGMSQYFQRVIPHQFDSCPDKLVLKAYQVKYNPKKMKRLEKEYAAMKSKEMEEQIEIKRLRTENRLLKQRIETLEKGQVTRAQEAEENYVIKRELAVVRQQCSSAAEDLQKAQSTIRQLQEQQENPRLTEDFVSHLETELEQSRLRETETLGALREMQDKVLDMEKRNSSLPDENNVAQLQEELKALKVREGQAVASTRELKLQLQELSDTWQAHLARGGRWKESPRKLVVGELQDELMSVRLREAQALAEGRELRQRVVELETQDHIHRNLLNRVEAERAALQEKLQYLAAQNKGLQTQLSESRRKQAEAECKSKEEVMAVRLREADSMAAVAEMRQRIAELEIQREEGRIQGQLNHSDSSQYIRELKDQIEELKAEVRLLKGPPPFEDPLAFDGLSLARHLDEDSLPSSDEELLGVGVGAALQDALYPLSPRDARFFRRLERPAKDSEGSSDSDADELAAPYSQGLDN
UniProt Q96HS1, whole entry: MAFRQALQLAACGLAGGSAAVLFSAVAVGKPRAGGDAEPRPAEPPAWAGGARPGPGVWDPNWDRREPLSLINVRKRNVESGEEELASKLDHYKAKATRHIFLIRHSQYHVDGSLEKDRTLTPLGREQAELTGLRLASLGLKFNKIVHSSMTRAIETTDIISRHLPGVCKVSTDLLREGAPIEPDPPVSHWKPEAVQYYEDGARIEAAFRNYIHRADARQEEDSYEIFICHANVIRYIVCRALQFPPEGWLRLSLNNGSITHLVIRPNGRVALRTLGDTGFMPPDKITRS
UniProt Q96FK6: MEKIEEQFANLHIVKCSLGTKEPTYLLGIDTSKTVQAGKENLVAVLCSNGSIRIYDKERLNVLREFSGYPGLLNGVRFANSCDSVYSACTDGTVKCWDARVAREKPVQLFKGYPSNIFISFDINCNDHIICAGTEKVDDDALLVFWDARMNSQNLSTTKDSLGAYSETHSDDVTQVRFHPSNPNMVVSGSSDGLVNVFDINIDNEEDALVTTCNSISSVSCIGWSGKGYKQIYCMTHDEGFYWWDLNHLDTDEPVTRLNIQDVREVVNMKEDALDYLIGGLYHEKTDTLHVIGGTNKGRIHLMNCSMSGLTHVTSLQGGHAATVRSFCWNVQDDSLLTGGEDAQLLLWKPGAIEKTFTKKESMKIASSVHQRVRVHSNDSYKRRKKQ
UniProt Q96E39: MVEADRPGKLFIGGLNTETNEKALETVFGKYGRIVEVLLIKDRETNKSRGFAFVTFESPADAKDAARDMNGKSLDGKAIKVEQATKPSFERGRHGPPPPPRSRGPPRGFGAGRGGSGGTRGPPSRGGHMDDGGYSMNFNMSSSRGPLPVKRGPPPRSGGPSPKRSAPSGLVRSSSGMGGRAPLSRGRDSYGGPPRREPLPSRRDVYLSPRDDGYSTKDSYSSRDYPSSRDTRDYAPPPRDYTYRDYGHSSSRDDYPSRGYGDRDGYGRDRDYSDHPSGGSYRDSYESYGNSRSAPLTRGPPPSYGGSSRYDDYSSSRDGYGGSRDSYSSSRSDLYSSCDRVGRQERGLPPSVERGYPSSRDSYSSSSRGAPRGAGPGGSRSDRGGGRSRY
UniProt Q92974: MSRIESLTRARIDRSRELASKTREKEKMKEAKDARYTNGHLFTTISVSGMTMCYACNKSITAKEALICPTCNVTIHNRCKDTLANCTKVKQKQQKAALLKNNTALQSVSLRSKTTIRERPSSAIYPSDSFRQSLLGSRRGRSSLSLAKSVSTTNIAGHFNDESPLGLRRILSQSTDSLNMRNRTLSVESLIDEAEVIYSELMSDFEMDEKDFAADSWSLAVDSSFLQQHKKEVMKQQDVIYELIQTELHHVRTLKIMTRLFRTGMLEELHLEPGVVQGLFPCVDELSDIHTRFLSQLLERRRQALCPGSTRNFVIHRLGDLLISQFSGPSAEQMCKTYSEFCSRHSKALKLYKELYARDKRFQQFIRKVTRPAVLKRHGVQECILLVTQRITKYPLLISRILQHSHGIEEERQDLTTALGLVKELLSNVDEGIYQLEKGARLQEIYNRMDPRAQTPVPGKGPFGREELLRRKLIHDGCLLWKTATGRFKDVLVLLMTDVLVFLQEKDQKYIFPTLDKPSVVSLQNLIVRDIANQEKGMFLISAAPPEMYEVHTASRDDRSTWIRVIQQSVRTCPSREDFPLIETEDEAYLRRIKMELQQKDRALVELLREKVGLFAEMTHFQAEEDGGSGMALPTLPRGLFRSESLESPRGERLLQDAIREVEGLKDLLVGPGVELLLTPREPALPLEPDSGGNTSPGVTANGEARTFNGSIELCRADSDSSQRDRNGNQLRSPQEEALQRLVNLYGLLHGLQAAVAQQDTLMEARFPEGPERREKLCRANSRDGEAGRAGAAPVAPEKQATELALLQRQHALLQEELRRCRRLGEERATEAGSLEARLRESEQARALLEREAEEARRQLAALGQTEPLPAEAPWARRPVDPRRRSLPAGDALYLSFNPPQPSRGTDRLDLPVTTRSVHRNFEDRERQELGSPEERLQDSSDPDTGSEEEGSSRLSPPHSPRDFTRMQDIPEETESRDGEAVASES
UniProt Q96AT1: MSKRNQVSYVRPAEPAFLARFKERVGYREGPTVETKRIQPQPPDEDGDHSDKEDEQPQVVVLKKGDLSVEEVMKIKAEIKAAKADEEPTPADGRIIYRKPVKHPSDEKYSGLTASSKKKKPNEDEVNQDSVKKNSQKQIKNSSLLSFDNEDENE
UniProt Q96FX2: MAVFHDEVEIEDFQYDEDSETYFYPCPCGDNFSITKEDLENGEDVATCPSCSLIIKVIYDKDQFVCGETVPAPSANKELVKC
UniProt Q96HN2, whole entry: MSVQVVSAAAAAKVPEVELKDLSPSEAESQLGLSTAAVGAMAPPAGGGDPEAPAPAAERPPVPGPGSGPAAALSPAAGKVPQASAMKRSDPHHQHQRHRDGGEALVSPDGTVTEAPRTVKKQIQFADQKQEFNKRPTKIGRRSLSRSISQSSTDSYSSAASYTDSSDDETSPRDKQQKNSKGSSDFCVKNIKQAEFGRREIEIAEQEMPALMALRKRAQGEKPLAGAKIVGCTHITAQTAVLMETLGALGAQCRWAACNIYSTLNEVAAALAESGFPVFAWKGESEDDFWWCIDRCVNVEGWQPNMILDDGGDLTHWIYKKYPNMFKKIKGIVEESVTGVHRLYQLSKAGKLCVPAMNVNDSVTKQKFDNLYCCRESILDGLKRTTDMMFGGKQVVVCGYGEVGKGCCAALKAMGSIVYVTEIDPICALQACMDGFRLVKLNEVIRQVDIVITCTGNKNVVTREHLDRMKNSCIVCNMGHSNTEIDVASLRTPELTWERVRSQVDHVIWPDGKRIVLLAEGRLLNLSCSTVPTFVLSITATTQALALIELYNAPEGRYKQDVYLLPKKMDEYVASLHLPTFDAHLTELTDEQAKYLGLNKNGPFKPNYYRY
UniProt Q96G61: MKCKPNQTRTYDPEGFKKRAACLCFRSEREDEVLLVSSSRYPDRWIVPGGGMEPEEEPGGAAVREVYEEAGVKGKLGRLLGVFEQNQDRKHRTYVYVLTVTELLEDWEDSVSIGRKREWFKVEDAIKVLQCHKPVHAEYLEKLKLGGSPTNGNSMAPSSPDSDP
UniProt Q96NB2: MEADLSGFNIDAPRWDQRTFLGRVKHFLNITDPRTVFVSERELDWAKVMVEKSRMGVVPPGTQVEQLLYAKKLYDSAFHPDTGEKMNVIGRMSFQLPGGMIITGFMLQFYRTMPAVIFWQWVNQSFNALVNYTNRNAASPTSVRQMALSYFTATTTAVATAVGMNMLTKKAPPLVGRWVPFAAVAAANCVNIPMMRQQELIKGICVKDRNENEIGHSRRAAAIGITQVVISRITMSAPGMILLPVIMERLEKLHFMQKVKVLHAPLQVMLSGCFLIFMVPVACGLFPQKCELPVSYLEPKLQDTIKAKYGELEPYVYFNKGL

Compound: Nc1ncnc2c1ncn2[C@@H]1O[C@H](COP(=O)(O)OP(=O)(O)NP(=O)(O)O)[C@@H](O)[C@H]1O [adenylyl imidodiphosphate]
Experiment: NP40-soluble protein abundance relative to vehicle (solubility fold change) (ratio); higher = more soluble protein in presence of AMP-PNP
Method in brief: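 Each value is a fold change relative to the detergent-processed vehicle, calculated per replicate from vsn-normalised intensities. Jurkat crude lysate received eight concentrations (0.1 to 10 mM) for 10 min at room temperature and 3 min at 37 °C, then was solubilised in 0.8% NP40 with benzonase (60 min, 4 °C). The ultracentrifuged supernatant was TMT-labelled and run by LC-MS/MS in three independent experiments.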

Target	NP40-soluble protein abundance (concentration: 1mM)	NP40-soluble protein abundance (concentration: 2mM)	NP40-soluble protein abundance (concentration: 4mM)	NP40-soluble protein abundance (concentration: 6mM)	NP40-soluble protein abundance (concentration: 8mM)	NP40-soluble protein abundance (concentration: 10mM)
UniProt Q96EE3 and related entries	1 ± 0.05	0.954 ± 0.03	1.04 ± 0.012	0.994 ± 0.046	1.09 ± 0.036	1.04 ± 0.012
UniProt Q96AC1 and related entries	1 ± 0.052	0.962 ± 0.018	0.967 ± 0.036	0.973 ± 0.028	1.01 ± 0.035	0.97 ± 0.029
GTF3C6 (UniProt Q969F1)	1.04 ± 0.045	1.07 ± 0.042	1.04 ± 0.032	0.984 ± 0.018	0.99 ± 0.047	1.01 ± 0.035
FUBP3 (UniProt Q96I24)	1.01 ± 0.02	1.04 ± 0.029	0.996 ± 0.025	0.983 ± 0.014	0.9682 ± 0.0077	0.978 ± 0.02
UniProt Q96ED9-2|Q96ED9	0.983 ± 0.027	1.01 ± 0.038	0.977 ± 0.048	0.98 ± 0.042	0.963 ± 0.041	0.95 ± 0.063
ATG4C (UniProt Q96DT6)	0.992 ± 0.074	0.965 ± 0.089	1.03 ± 0.12	0.976 ± 0.029	1.01 ± 0.065	0.996 ± 0.039
UniProt Q96FA3	0.9865 ± 0.0024	1 ± 0.014	0.978 ± 0.029	0.984 ± 0.017	0.992 ± 0.01	1.01 ± 0.049
MARS2 (UniProt Q96GW9)	0.993 ± 0.04	0.976 ± 0.036	1 ± 0.022	0.987 ± 0.031	0.991 ± 0.045	0.965 ± 0.036
UniProt Q96PV6-2	1.01 ± 0.023	1.05 ± 0.038	1.056 ± 0.0033	1.03 ± 0.027	1.055 ± 0.0091	1.07 ± 0.034
UniProt Q96ES7	0.975 ± 0.015	1.03 ± 0.038	0.967 ± 0.018	0.993 ± 0.034	0.963 ± 0.048	0.992 ± 0.036
UniProt Q96GJ1 and related entries	0.9408 ± 0.0071	0.944 ± 0.026	0.957 ± 0.024	0.9518 ± 0.0072	0.974 ± 0.024	0.949 ± 0.053
UniProt Q96DZ1	0.966 ± 0.015	0.967 ± 0.057	0.952 ± 0.028	0.946 ± 0.034	0.928 ± 0.036	0.95 ± 0.054
UniProt Q96IV0 and related entries	0.956 ± 0.026	0.908 ± 0.027	0.932 ± 0.038	0.9012 ± 0.0066	0.913 ± 0.022	0.886 ± 0.024
UniProt Q96CN4 and related entries	1 ± 0.035	0.998 ± 0.067	1.02 ± 0.025	1 ± 0.011	0.974 ± 0.024	0.956 ± 0.049
UniProt Q96HS1 and related entries	0.987 ± 0.045	0.993 ± 0.076	1.06 ± 0.1	1.15 ± 0.096	1.23 ± 0.14	1.27 ± 0.19
TRMT61A (UniProt Q96FX7)	1.01 ± 0.041	0.933 ± 0.069	1.03 ± 0.022	0.993 ± 0.047	1.03 ± 0.036	1.001 ± 0.0083
ZNF512B (UniProt Q96KM6)	1.01 ± 0.017	1.09 ± 0.06	1.1 ± 0.061	1.13 ± 0.044	1.16 ± 0.05	1.17 ± 0.064
WDR89 (UniProt Q96FK6)	1.07 ± 0.031	1.09 ± 0.051	1.17 ± 0.033	1.18 ± 0.038	1.255 ± 0.0092	1.268 ± 0.011
UniProt Q93100 and related entries	0.963 ± 0.032	0.884 ± 0.12	0.938 ± 0.037	0.858 ± 0.082	0.882 ± 0.092	0.846 ± 0.13
UniProt Q96GN5 and related entries	0.999 ± 0.015	1.03 ± 0.054	1.03 ± 0.053	1.08 ± 0.075	1.09 ± 0.086	1.11 ± 0.092

Given as comma-separated lines: entries from further up.
Target,NP40-soluble protein abundance (concentration: 1mM),NP40-soluble protein abundance (concentration: 2mM),NP40-soluble protein abundance (concentration: 4mM),NP40-soluble protein abundance (concentration: 6mM),NP40-soluble protein abundance (concentration: 8mM),NP40-soluble protein abundance (concentration: 10mM)
UniProt Q96ED9-2|Q96ED9,0.983 ± 0.027,1.01 ± 0.038,0.977 ± 0.048,0.98 ± 0.042,0.963 ± 0.041,0.95 ± 0.063
ATG4C (UniProt Q96DT6),0.992 ± 0.074,0.965 ± 0.089,1.03 ± 0.12,0.976 ± 0.029,1.01 ± 0.065,0.996 ± 0.039
UniProt Q96FA3,0.9865 ± 0.0024,1 ± 0.014,0.978 ± 0.029,0.984 ± 0.017,0.992 ± 0.01,1.01 ± 0.049
MARS2 (UniProt Q96GW9),0.993 ± 0.04,0.976 ± 0.036,1 ± 0.022,0.987 ± 0.031,0.991 ± 0.045,0.965 ± 0.036
UniProt Q96PV6-2,1.01 ± 0.023,1.05 ± 0.038,1.056 ± 0.0033,1.03 ± 0.027,1.055 ± 0.0091,1.07 ± 0.034
UniProt Q96ES7,0.975 ± 0.015,1.03 ± 0.038,0.967 ± 0.018,0.993 ± 0.034,0.963 ± 0.048,0.992 ± 0.036
UniProt Q96GJ1 and related entries,0.9408 ± 0.0071,0.944 ± 0.026,0.957 ± 0.024,0.9518 ± 0.0072,0.974 ± 0.024,0.949 ± 0.053
UniProt Q96DZ1,0.966 ± 0.015,0.967 ± 0.057,0.952 ± 0.028,0.946 ± 0.034,0.928 ± 0.036,0.95 ± 0.054
UniProt Q96IV0 and related entries,0.956 ± 0.026,0.908 ± 0.027,0.932 ± 0.038,0.9012 ± 0.0066,0.913 ± 0.022,0.886 ± 0.024
UniProt Q96CN4 and related entries,1 ± 0.035,0.998 ± 0.067,1.02 ± 0.025,1 ± 0.011,0.974 ± 0.024,0.956 ± 0.049
UniProt Q96HS1 and related entries,0.987 ± 0.045,0.993 ± 0.076,1.06 ± 0.1,1.15 ± 0.096,1.23 ± 0.14,1.27 ± 0.19
TRMT61A (UniProt Q96FX7),1.01 ± 0.041,0.933 ± 0.069,1.03 ± 0.022,0.993 ± 0.047,1.03 ± 0.036,1.001 ± 0.0083
ZNF512B (UniProt Q96KM6),1.01 ± 0.017,1.09 ± 0.06,1.1 ± 0.061,1.13 ± 0.044,1.16 ± 0.05,1.17 ± 0.064
WDR89 (UniProt Q96FK6),1.07 ± 0.031,1.09 ± 0.051,1.17 ± 0.033,1.18 ± 0.038,1.255 ± 0.0092,1.268 ± 0.011
UniProt Q93100 and related entries,0.963 ± 0.032,0.884 ± 0.12,0.938 ± 0.037,0.858 ± 0.082,0.882 ± 0.092,0.846 ± 0.13
UniProt Q96GN5 and related entries,0.999 ± 0.015,1.03 ± 0.054,1.03 ± 0.053,1.08 ± 0.075,1.09 ± 0.086,1.11 ± 0.092

The list continues:

Target	NP40-soluble protein abundance (concentration: 1mM)	NP40-soluble protein abundance (concentration: 2mM)	NP40-soluble protein abundance (concentration: 4mM)	NP40-soluble protein abundance (concentration: 6mM)	NP40-soluble protein abundance (concentration: 8mM)	NP40-soluble protein abundance (concentration: 10mM)
PRRC1 (UniProt Q96M27)	1.03 ± 0.085	1.01 ± 0.085	1.01 ± 0.071	1.03 ± 0.046	1.05 ± 0.05	1 ± 0.093
RPRD1A (UniProt Q96P16)	0.98 ± 0.013	1.04 ± 0.059	1.01 ± 0.028	1.06 ± 0.082	1.09 ± 0.014	1.06 ± 0.061
RBMXL1 (UniProt Q96E39)	1.03 ± 0.056	1.14 ± 0.046	1.11 ± 0.024	1.19 ± 0.038	1.25 ± 0.059	1.31 ± 0.036
UniProt Q96EA4	0.9953 ± 0.0059	1.05 ± 0.019	1 ± 0.043	0.974 ± 0.014	0.978 ± 0.012	0.956 ± 0.034
UniProt Q96JK2 and related entries	0.991 ± 0.035	0.984 ± 0.049	0.986 ± 0.053	0.992 ± 0.037	0.983 ± 0.035	0.989 ± 0.043
IPO9 (UniProt Q96P70)	1.03 ± 0.035	1.03 ± 0.038	1.01 ± 0.03	0.982 ± 0.043	1.01 ± 0.051	0.979 ± 0.063
UniProt Q92974 and related entries	0.989 ± 0.015	0.964 ± 0.041	0.9747 ± 0.0076	0.942 ± 0.02	0.951 ± 0.01	0.945 ± 0.027
PDXP (UniProt Q96GD0)	0.978 ± 0.02	0.935 ± 0.046	0.9594 ± 0.0086	0.983 ± 0.011	0.973 ± 0.012	0.97 ± 0.041
FAM122A (UniProt Q96E09)	1.023 ± 0.0051	1.02 ± 0.047	1.0112 ± 0.00041	0.9747 ± 0.0087	1 ± 0.045	0.985 ± 0.039
UniProt Q96B36 and related entries	0.992 ± 0.045	1.03 ± 0.079	0.986 ± 0.052	1.01 ± 0.028	0.953 ± 0.014	0.983 ± 0.041
CHCHD1 (UniProt Q96BP2)	1 ± 0.028	1.051 ± 0.0023	1.01 ± 0.013	0.981 ± 0.011	0.982 ± 0.04	0.968 ± 0.018
UniProt Q96DF8	1.01 ± 0.017	1.07 ± 0.067	1.02 ± 0.045	0.989 ± 0.015	0.977 ± 0.025	1 ± 0.038
OMA1 (UniProt Q96E52)	0.986 ± 0.034	0.976 ± 0.017	1 ± 0.03	0.933 ± 0.026	0.965 ± 0.04	0.943 ± 0.033
KCTD12 (UniProt Q96CX2)	1.05 ± 0.034	1.09 ± 0.042	1.07 ± 0.035	1.04 ± 0.011	1.06 ± 0.035	1.07 ± 0.049
UniProt Q96AJ9 and related entries	1.02 ± 0.049	1.06 ± 0.073	1.01 ± 0.059	0.991 ± 0.038	0.982 ± 0.02	1 ± 0.063
ELP4 (UniProt Q96EB1)	0.992 ± 0.043	0.941 ± 0.072	0.979 ± 0.057	0.953 ± 0.074	0.973 ± 0.038	0.956 ± 0.065
UniProt Q96J02 and related entries	1.01 ± 0.018	0.966 ± 0.067	1.01 ± 0.042	0.993 ± 0.049	1.03 ± 0.03	0.978 ± 0.025
MRPL53 (UniProt Q96EL3)	0.987 ± 0.06	1.01 ± 0.023	0.986 ± 0.061	0.98 ± 0.045	1 ± 0.063	1 ± 0.066
UniProt Q96AQ8	0.998 ± 0.034	0.992 ± 0.044	0.983 ± 0.046	0.997 ± 0.039	0.9953 ± 0.0099	0.97 ± 0.059
UniProt Q96QF0 and related entries	1.04 ± 0.038	1.02 ± 0.037	1.02 ± 0.037	1 ± 0.022	0.978 ± 0.028	0.997 ± 0.029

Target	NP40-soluble protein abundance (concentration: 1mM)	NP40-soluble protein abundance (concentration: 2mM)	NP40-soluble protein abundance (concentration: 4mM)	NP40-soluble protein abundance (concentration: 6mM)	NP40-soluble protein abundance (concentration: 8mM)	NP40-soluble protein abundance (concentration: 10mM)
UniProt Q96K76 and related entries	0.9994 ± 0.0059	0.965 ± 0.044	0.967 ± 0.018	0.946 ± 0.03	0.935 ± 0.031	0.921 ± 0.036
MRPS24 (UniProt Q96EL2)	0.986 ± 0.081	0.927 ± 0.055	0.99 ± 0.055	0.979 ± 0.024	0.989 ± 0.053	0.965 ± 0.069
DHTKD1 (UniProt Q96HY7)	0.99 ± 0.026	0.939 ± 0.013	0.967 ± 0.045	0.93 ± 0.044	0.931 ± 0.033	0.899 ± 0.059
UniProt Q96N16 and related entries	1.03 ± 0.027	1.1 ± 0.028	1.09 ± 0.054	1.12 ± 0.054	1.1 ± 0.024	1.11 ± 0.034
YIPF6 (UniProt Q96EC8)	0.986 ± 0.031	1.01 ± 0.044	0.997 ± 0.045	1.03 ± 0.1	1.02 ± 0.046	1.04 ± 0.035
UniProt Q96CW5 and related entries	1.04 ± 0.029	1.03 ± 0.047	1.03 ± 0.095	1.05 ± 0.092	1.08 ± 0.13	1.08 ± 0.14
UniProt Q96IJ6 and related entries	0.9729 ± 0.0088	0.978 ± 0.036	0.991 ± 0.014	1 ± 0.012	0.996 ± 0.03	0.993 ± 0.033
UniProt Q96EK5	1.01 ± 0.033	0.965 ± 0.043	0.992 ± 0.039	0.999 ± 0.081	1.03 ± 0.066	0.97 ± 0.073
UniProt Q96LT9 and related entries	1.009 ± 0.0063	1.062 ± 0.0089	1.016 ± 0.0023	1.08 ± 0.012	1.089 ± 0.0011	1.1 ± 0.023
KIAA1143 (UniProt Q96AT1)	1.06 ± 0.011	1.03 ± 0.06	1.004 ± 0.0028	0.931 ± 0.058	0.915 ± 0.019	0.939 ± 0.029
DPH3 (UniProt Q96FX2)	1.01 ± 0.038	1.01 ± 0.014	1 ± 0.033	1.03 ± 0.031	1.03 ± 0.027	1.02 ± 0.014
UniProt Q96FJ0 and related entries	1.02 ± 0.012	0.989 ± 0.029	1.06 ± 0.013	1.06 ± 0.045	1.08 ± 0.018	1.07 ± 0.014
UniProt Q93015 and related entries	0.978 ± 0.06	0.985 ± 0.0068	0.964 ± 0.025	0.9652 ± 0.002	1 ± 0.024	0.982 ± 0.035
UniProt Q96HN2-2|Q96HN2	1.03 ± 0.029	1.048 ± 0.0069	1.01 ± 0.018	1.01 ± 0.04	0.971 ± 0.025	0.985 ± 0.014
NUDT11 (UniProt Q96G61)	1.02 ± 0.05	1.01 ± 0.034	1.03 ± 0.058	1.08 ± 0.053	1.1 ± 0.019	1.09 ± 0.052
UniProt Q96P11 and related entries	1.01 ± 0.032	1.01 ± 0.069	1.09 ± 0.03	1.07 ± 0.017	1.108 ± 0.01	1.123 ± 0.011
SFXN2 (UniProt Q96NB2)	0.983 ± 0.015	0.947 ± 0.032	0.99 ± 0.027	0.971 ± 0.035	0.991 ± 0.013	0.982 ± 0.022
UniProt Q96B97 and related entries	1.03 ± 0.019	1.07 ± 0.033	1.033 ± 0.0091	1.01 ± 0.039	0.971 ± 0.023	1.02 ± 0.027
MRPL24 (UniProt Q96A35)	0.973 ± 0.11	0.964 ± 0.067	0.951 ± 0.14	0.898 ± 0.16	0.897 ± 0.16	0.917 ± 0.18
UniProt Q96Q89-3|Q96Q89 and related entries	1.03 ± 0.033	1.01 ± 0.021	1.02 ± 0.052	0.988 ± 0.054	0.944 ± 0.046	0.984 ± 0.073
